In publication PMC4841779 one finds binding data, which are given here for eleven molecules.

Protein sequences, listed by entry. Tags and fused reporters are not part of them. Residues count along the entry.
UniProt P46108, residues 13-118: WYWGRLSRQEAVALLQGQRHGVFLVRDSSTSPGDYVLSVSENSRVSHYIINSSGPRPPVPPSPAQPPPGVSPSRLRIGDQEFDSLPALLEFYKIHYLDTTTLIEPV
UniProt P46109, residues 14-102: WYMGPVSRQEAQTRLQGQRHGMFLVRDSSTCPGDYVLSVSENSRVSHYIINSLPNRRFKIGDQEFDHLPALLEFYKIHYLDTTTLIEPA
UniProt P06241, residues 149-246: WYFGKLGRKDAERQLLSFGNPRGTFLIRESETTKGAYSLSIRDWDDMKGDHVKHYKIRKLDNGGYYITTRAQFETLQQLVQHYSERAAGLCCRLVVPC
UniProt P07947, residues 158-255: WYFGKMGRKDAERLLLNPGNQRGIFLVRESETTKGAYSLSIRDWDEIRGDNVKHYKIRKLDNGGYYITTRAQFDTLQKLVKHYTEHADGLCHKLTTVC

These are yes or no findings as the source states them, for the method shown. Some results given as binding are weak or reduced against the parent protein; the word gives no strength. Tags and fused reporters may be left off the sequences shown.

The test concerns the target EGFR, tyrosine-phosphorylated (~195 kDa band of A431 lysate) (human (endogenous in A431)) (UniProt P00533). Briefly: far-Western, overlay or dot blot; lysates of starved A431 cells stimulated with 25 ng/ml EGF (60-min time course; also 1 and 10 ng/ml EGF, or pervanadate), 20 μg per lane on LDS-PAGE, transferred to nitrocellulose; blotted 2 hr with 1–5 ng/ml recombinant GST-SH2/PTB labeled with GSH-HRP and anti-GST-HRP in 5% milk-TBST; bands identified by immunodepletion; only the binder purified.

Consider “GST-ABL SH2 domain probe (from UniProt P00519 127-217) (domain or fragment)”, for which the binding result is reported as “binds”. The entry for “GST-CRK SH2 domain probe (from UniProt P46108 13-118) (domain or fragment)” is “binds”. With “GST-CRKL SH2 domain probe (from UniProt P46109 14-102) (domain or fragment)” the entry was “binds”; with “GST-FYN SH2 domain probe (from UniProt P06241 149-246) (domain or fragment)”, “binds”. As for “GST-GRB7 SH2 domain probe (from UniProt Q14451 431-527) (domain or fragment)”, the binding entry is listed as “binds”. With “GST-YES SH2 domain probe (from UniProt P07947 158-255) (domain or fragment)” the entry was “binds”.

B1: GST-ARG SH2 domain probe (domain or fragment, UniProt P42684 173-263)
chain: WYHGPVSRSAAEYLLSSLINGSFLVRESESSPGQLSISLRYEGRVYHYRINTTADGKVYVTAESRFSTLAELVHHHSTVADGLVTTLHYPA
With B1, the binding entry is on record as “binds”.

B2: GST-SHIP2 SH2 domain probe (domain or fragment, UniProt O15357 21-117)
chain: WYHRDLSRAAAEELLARAGRDGSFLVRDSESVAGAFALCVLYQKHVHTYRILPDGEDFLAVQTSQGVPVRRFQTLGELIGLYAQPNQGLVCALLLPV
As to B2, the binding entry is “binds”.

B3: GST-EAT2 SH2 domain probe (domain or fragment, UniProt O14796 5-101)
chain: YYHGRLTKQDCETLLLKEGVDGNFLLRDSESIPGVLCLCVSFKNIVYTYRIFREKHGYYRIQTAEGSPKQVFPSLKELISKFEKPNQGMVVHLLKPI
Turning to B3, the binding entry was “binds”.

B4: GST-VAV2 SH2 domain probe (domain or fragment, UniProt P52735 673-767)
chain: WFAGNMERQQTDNLLKSHASGTYLIRERPAEAERFAISIKFNDEVKHIKVVEKDNWIHITEAKKFDSLLELVEYYQCHSLKESFKQLDTTLKYPY
B4: the binding entry was “binds”.

B5: GST-GRB14 SH2 domain probe (domain or fragment, UniProt Q14449 439-535)
chain: WFHHKISRDEAQRLIIQQGLVDGVFLVRDSQSNPKTFVLSMSHGQKIKHFQIIPVEDDGEMFHTLDDGHTRFTDLIQLVEFYQLNKGVLPCKLKHYC
In the case of B5, the binding result is reported as “binds”.
